Experimental data taken from the supplement of paper PMC10849652.
The list shows a part of the results.

Amino acid sequences for entries named in this document (tags omitted). A change or cut given only in a name is not applied to a line headed by its entry.
UniProt Q9UIV1, whole entry, looked up: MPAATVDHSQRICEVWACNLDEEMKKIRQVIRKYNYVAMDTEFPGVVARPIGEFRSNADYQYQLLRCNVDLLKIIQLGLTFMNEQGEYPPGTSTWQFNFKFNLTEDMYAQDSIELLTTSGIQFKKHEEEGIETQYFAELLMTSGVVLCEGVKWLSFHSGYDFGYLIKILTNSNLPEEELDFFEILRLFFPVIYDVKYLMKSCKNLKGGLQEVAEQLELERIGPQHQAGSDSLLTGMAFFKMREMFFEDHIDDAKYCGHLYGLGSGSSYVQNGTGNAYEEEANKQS
UniProt Q9HAW4: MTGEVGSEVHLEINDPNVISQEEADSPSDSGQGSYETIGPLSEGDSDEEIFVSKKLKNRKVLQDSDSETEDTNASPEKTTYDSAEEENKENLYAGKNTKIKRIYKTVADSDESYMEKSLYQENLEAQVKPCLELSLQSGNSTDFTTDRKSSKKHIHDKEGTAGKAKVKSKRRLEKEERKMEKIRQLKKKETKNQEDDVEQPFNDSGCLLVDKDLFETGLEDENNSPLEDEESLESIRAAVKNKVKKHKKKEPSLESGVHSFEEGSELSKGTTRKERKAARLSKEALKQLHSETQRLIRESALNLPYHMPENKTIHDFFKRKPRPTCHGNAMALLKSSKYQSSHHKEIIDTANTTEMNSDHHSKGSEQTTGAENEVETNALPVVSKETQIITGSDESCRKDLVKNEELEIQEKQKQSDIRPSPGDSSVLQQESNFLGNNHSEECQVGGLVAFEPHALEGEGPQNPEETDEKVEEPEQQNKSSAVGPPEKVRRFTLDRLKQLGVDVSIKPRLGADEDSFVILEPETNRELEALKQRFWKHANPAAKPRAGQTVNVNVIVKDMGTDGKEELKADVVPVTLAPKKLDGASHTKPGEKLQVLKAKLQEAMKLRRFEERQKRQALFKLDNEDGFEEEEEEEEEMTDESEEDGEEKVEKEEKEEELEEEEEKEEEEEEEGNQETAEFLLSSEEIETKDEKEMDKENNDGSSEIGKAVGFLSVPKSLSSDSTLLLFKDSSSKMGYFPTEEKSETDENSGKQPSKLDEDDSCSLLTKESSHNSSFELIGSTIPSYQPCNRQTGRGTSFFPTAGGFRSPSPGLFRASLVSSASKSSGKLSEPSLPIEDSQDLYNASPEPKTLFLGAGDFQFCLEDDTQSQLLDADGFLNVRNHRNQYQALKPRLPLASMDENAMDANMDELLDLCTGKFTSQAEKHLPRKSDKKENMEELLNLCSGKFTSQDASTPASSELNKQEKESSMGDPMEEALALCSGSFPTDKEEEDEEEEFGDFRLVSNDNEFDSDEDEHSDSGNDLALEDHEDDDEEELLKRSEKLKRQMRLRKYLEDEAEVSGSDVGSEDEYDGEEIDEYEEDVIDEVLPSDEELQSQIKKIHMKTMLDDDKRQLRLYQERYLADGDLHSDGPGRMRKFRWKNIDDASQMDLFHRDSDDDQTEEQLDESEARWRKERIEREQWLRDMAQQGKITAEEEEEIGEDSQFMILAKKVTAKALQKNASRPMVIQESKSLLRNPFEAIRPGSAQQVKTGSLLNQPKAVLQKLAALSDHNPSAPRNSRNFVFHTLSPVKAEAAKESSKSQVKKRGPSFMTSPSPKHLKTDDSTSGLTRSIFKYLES
UniProt G5E9Z2: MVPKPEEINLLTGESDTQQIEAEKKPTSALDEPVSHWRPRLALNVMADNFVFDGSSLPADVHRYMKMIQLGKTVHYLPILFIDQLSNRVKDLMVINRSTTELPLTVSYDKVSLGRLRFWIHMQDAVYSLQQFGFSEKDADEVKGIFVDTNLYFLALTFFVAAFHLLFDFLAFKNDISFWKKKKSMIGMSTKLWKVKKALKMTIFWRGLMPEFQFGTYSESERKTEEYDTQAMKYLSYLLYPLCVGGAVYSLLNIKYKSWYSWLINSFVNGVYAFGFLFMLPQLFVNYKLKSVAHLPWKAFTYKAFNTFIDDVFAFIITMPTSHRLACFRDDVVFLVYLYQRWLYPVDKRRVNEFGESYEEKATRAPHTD
UniProt Q8WTW3: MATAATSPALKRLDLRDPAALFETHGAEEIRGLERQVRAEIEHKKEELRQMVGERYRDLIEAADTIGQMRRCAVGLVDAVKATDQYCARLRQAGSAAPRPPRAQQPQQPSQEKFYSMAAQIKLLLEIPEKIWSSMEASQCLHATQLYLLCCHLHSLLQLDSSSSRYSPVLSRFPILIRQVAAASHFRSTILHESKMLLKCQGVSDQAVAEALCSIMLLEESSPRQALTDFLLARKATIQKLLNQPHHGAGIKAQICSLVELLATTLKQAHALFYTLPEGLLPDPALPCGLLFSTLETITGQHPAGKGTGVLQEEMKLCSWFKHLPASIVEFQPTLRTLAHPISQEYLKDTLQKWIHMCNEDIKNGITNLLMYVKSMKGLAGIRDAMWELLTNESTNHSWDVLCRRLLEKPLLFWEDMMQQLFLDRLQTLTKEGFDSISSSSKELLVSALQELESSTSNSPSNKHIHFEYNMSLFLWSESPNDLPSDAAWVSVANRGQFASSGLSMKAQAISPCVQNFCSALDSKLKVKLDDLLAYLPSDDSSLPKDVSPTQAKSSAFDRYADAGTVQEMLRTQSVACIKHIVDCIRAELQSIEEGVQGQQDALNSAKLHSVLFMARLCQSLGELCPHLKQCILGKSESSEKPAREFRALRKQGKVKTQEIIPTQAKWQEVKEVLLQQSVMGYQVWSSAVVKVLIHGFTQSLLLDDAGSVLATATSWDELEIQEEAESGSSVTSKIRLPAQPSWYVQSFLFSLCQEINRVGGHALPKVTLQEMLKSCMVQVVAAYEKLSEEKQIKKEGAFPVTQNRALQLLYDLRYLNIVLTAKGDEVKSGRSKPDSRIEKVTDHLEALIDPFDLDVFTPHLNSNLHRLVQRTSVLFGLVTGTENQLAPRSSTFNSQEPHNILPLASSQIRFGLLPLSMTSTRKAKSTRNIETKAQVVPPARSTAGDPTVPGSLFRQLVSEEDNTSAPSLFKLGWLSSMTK
UniProt Q8IZR5: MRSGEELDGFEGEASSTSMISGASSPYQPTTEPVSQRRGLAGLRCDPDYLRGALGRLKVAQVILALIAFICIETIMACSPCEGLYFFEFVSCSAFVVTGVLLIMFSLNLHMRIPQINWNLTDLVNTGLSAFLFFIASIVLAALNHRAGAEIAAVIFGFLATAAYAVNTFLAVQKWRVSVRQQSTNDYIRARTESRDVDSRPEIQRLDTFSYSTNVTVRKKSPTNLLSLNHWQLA
UniProt A5YKK6, whole entry, looked up: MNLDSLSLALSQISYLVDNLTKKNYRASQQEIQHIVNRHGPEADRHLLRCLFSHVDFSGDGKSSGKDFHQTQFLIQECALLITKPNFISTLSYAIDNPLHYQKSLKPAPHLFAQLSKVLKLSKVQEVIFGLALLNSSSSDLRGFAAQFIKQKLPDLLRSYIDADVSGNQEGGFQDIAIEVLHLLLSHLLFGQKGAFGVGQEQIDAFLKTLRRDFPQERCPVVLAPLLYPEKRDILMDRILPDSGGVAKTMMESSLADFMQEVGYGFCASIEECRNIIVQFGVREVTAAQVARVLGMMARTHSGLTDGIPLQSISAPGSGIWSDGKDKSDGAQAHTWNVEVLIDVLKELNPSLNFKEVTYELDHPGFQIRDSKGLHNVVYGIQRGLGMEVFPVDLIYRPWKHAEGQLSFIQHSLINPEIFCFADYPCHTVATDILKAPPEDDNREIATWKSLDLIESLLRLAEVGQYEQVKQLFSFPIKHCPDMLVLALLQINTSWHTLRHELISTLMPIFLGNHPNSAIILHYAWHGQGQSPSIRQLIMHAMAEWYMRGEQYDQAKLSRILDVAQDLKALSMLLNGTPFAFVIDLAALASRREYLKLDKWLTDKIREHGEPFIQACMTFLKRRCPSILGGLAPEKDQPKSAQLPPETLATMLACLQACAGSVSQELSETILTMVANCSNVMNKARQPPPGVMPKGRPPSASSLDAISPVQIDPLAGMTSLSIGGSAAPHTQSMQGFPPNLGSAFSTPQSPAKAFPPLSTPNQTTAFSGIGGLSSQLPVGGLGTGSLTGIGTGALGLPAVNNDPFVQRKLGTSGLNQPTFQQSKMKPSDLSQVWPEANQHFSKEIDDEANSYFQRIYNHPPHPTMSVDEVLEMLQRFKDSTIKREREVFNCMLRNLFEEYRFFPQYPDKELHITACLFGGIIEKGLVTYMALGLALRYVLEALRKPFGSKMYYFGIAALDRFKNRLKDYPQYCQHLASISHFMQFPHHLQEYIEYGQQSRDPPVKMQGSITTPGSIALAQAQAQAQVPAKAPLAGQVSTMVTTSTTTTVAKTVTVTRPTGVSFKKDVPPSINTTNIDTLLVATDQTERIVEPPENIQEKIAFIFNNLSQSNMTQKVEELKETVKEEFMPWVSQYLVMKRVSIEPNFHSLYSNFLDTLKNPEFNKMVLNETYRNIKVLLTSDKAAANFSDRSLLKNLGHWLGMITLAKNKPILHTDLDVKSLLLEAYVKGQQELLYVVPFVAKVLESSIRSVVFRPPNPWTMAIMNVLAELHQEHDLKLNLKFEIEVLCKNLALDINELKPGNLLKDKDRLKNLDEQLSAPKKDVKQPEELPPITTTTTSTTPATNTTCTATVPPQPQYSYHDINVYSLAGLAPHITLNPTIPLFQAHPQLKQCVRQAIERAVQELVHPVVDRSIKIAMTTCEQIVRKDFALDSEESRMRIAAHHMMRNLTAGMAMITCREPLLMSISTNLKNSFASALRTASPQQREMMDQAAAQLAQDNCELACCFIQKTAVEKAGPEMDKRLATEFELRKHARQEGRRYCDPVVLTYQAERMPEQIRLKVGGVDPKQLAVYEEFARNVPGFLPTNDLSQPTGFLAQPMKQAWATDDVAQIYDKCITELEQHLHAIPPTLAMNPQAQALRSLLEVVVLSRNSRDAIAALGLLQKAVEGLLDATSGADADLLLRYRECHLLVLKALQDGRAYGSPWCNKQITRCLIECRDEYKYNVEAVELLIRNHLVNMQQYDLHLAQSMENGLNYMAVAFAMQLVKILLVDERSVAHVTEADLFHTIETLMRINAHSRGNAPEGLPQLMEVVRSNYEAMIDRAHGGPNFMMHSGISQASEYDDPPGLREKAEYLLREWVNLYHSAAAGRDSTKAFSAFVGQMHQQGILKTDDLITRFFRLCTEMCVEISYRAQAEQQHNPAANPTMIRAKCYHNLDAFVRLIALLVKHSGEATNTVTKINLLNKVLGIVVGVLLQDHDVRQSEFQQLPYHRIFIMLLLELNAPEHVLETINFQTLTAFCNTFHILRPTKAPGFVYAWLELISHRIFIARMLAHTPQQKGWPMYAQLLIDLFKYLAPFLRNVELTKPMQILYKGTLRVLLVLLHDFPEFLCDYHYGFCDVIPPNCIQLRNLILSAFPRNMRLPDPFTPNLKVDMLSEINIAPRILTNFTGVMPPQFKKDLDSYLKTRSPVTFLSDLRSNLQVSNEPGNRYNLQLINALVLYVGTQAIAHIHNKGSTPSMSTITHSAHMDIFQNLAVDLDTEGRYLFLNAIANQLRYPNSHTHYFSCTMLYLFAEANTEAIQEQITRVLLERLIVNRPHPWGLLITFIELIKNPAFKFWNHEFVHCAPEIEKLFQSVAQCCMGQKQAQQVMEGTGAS
UniProt P05452, whole entry, looked up: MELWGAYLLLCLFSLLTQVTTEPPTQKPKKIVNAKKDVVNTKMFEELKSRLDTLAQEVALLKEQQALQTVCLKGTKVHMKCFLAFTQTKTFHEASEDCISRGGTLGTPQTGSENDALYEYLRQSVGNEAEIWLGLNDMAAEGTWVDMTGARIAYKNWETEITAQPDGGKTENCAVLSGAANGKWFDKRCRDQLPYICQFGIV
UniProt Q86X95: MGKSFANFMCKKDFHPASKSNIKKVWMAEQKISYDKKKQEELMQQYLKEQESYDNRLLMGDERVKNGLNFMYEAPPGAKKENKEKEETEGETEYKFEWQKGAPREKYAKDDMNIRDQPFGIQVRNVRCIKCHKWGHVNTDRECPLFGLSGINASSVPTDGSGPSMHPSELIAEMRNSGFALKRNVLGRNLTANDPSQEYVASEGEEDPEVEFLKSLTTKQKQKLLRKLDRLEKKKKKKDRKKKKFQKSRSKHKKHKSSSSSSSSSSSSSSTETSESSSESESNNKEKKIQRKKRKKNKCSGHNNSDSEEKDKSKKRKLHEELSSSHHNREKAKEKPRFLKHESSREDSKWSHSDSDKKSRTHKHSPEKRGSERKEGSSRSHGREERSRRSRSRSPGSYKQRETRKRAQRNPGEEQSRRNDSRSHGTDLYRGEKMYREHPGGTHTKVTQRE
UniProt Q9Y3D0: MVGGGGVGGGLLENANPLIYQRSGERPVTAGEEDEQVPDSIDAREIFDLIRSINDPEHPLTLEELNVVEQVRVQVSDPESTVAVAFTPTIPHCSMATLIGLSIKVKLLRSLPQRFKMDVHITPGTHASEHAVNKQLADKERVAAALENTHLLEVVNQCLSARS
UniProt Q99653: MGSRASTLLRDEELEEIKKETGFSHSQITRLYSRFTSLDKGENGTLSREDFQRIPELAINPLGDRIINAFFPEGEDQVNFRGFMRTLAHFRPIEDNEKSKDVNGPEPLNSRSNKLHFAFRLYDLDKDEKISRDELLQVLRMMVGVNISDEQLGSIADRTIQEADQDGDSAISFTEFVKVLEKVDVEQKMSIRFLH

Columns and labels:
Test in all cases: log2 fold change, soluble protein after heating vs DMSO (PISA); higher = thermal stabilisation; K562 cells, 10 uM, 30 min; active = over 0.2 and 3.5 SD of the protein, either way, in both replicates (recomputed)
[1] = compound: CS(=O)(=O)c1ccc(-c2cnc(N)c(C(=O)Nc3ccccc3)n2)cc1
In short: (§1)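 K562 cells at 2×10^6 cells/mL were treated for 30 min with 10 μM compound, and aliquots were heated for 3 min over 48°C-58°C before pooling. Extraction used PBS with 0.5% NP-40 at 4°C, and soluble protein was the supernatant after 21,000xg for 90 min, measured by TMTpro 16plex LC-MS/MS with channel sums equalised. Thermal stability values, relative to control samples and from duplicates, are log2 fold changes.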

crizotinib = compound: C[C@@H](Oc1cc(-c2cnn(C3CCNCC3)c2)cnc1N)c1c(Cl)ccc(F)c1Cl [crizotinib]
In short: as §1

[2] = compound: C[C@@H]1COCCN1C2=NC(=NC(=C2)C3(CC3)S(=O)(=O)C)C4=C5C=CNC5=CC=C4
In short: as §1

[3] = compound: C[C@H](C1=CC=C(C=C1)C(=O)NC2=C3C=CNC3=NC=C2)N
In short: as §1

gandotinib = compound: Cc1cc(Nc2cc(CN3CCOCC3)c3nc(C)c(Cc4ccc(Cl)cc4F)n3n2)n[nH]1 [gandotinib]
In short: as §1

[4] = compound: Cc1cc(SCc2sc(-c3ccc(C(F)(F)F)cc3)nc2C)ccc1OCC(=O)O
In short: as §1

doramapimod = compound: Cc1ccc(-n2nc(C(C)(C)C)cc2NC(=O)Nc2ccc(OCCN3CCOCC3)c3ccccc23)cc1 [doramapimod]
In short: as §1

ispinesib = compound: Cc1ccc(C(=O)N(CCCN)[C@@H](c2nc3cc(Cl)ccc3c(=O)n2Cc2ccccc2)C(C)C)cc1 [ispinesib]
In short: as §1

duvelisib = compound: C[C@H](Nc1ncnc2nc[nH]c12)c1cc2cccc(Cl)c2c(=O)n1-c1ccccc1 [duvelisib]
In short: as §1

tozasertib = compound: Cc1cc(Nc2cc(N3CCN(C)CC3)nc(Sc3ccc(NC(=O)C4CC4)cc3)n2)n[nH]1 [tozasertib]
In short: as §1

Target | log2 fold change [1] | log2 fold change (crizotinib) | log2 fold change [2] | log2 fold change [3] | log2 fold change (gandotinib) | log2 fold change [4] | log2 fold change (doramapimod) | log2 fold change (ispinesib) | log2 fold change (duvelisib) | log2 fold change (tozasertib)
CNOT7 (UniProt Q9UIV1) | inactive: -0.052 | inactive: -0.097 | inactive: 0.043 | inactive: 0.219 | inactive: -0.003 | inactive: 0.022 | inactive: 0.07 | inactive: -0.072 |  | 
CNOT11 (UniProt Q9UKZ1) | inactive: -0.031 | inactive: -0.085 | inactive: -0.189 | inactive: 0.031 |  | inactive: -0.01 | inactive: 0.017 | inactive: -0.072 | inactive: -0.035 | inactive: -0.072
COL15A1 (UniProt P39059) | inactive: 0.11 | inactive: -0.064 | inactive: -0.054 | inactive: -0.109 |  | inactive: 0.066 | inactive: 0.062 | inactive: -0.137 | inactive: -0.321 | inactive: 0.033
CLSPN (UniProt Q9HAW4) | inactive: -0.028 | inactive: 0.039 | inactive: -0.04 | inactive: -0.046 | inactive: 0.047 | inactive: -0.104 | inactive: 0.001 | inactive: 0.107 |  | 
CHST10 (UniProt O43529) | inactive: 0.235 | inactive: -0.206 | inactive: 0.014 | inactive: 0.009 | inactive: 0.087 |  | inactive: 0.015 | inactive: -0.009 |  | 
CLTB (UniProt P09497) | inactive: -0.058 | inactive: 0.007 | inactive: -0.004 | inactive: -0.047 | inactive: 0.026 | inactive: -0.056 | inactive: -0.012 | inactive: 0.085 |  | 
CLPTM1L (UniProt G5E9Z2) | inactive: -0.317 |  | inactive: 0.073 | inactive: 0.067 | inactive: -0.382 |  |  |  |  | 
COG1 (UniProt Q8WTW3) | inactive: -0.034 | inactive: -0.01 |  | inactive: 0.227 | inactive: 0.076 | inactive: 0.117 | inactive: 0.193 | inactive: -0.052 | inactive: 0.029 | inactive: -0.006
CLSTN1 (UniProt O94985) | inactive: -0.055 | inactive: -0.007 |  | inactive: 0.102 | inactive: -0.095 | inactive: -0.249 | inactive: 0.022 | inactive: -0.826 | inactive: 0.301 | inactive: -0.171
CLINT1 isoform 3 (UniProt Q14677) | inactive: -0.019 | inactive: 0.02 |  | inactive: 0.159 | inactive: 0.047 | inactive: -0.097 | inactive: 0.012 | inactive: -0.001 |  | 
CLDN12 (UniProt P56749) | inactive: 0.174 |  | inactive: 0.271 |  |  |  |  |  |  | 
COIL (UniProt P38432) | inactive: -0.287 |  | inactive: 0.338 |  |  | inactive: 0.039 |  | inactive: -0.136 | inactive: 0.037 | inactive: -0.059
CLIC6 (UniProt Q96NY7) | inactive: -0.055 | inactive: 0.061 | inactive: 0.278 |  |  | inactive: 0.032 | inactive: -0.128 | inactive: -0.011 | inactive: 0.059 | inactive: -0.082
CMTM4 (UniProt Q8IZR5) | inactive: 0.01 |  | inactive: -0.092 |  |  |  |  |  |  | inactive: -0.042
CHURC1-FNTB (UniProt B4DL54) | inactive: 0.059 | inactive: -0.044 | inactive: 0.058 |  | inactive: -0.094 |  | inactive: -0.095 | inactive: 0.047 |  | inactive: -0.026
CNOT1 (UniProt A5YKK6) | inactive: 0.006 | inactive: -0.087 | inactive: -0.034 | inactive: 0.033 | inactive: -0.043 | inactive: 0.076 | inactive: -0.025 | inactive: -0.038 |  | 
CIP2A (UniProt Q8TCG1) | inactive: 0.325 |  | inactive: -0.132 |  | inactive: 0.41 | inactive: -0.377 |  |  | inactive: 0.498 | 
CMIP (UniProt Q8IY22) | inactive: 0.147 |  | inactive: -0.257 |  | inactive: 0.129 |  |  | inactive: 0.036 |  | 
COG2 (UniProt Q14746) | inactive: -0.029 | inactive: -0.17 | inactive: 0.094 | inactive: 0.483 |  | inactive: 0.061 | inactive: 0 | inactive: -0.264 |  | 
CLASRP (UniProt Q8N2M8) | inactive: 0.116 | inactive: 0.12 | inactive: -0.044 | inactive: -0.075 | inactive: 0.12 |  | inactive: -0.069 |  |  | 
CLEC3B (UniProt P05452) | inactive: -0.127 |  | inactive: -0.076 | inactive: 0.049 |  | inactive: -0.167 |  | inactive: -0.084 | inactive: -0.178 | inactive: -0.102
CLCN7 (UniProt P51798) | inactive: -0.037 | active: -0.814 | inactive: 0.018 | inactive: -0.091 | inactive: -0.193 | inactive: 0.028 | inactive: -0.008 | active: -0.952 |  | 
COL14A1 (UniProt Q05707) | inactive: -0.195 | inactive: 0.084 | inactive: -0.198 |  | inactive: 0.156 | inactive: -0.013 | inactive: -0.205 |  | inactive: -0.105 | inactive: 0.025
CHPT1 (UniProt Q8WUD6) | inactive: 0.064 |  | inactive: -0.07 | inactive: 0.023 | inactive: 0.038 | inactive: 0.015 |  | active: -1.09 |  | 
CIR1 (UniProt Q86X95) | inactive: -0.039 | inactive: 0.03 | inactive: -0.187 | active: 0.544 | inactive: 0.295 | inactive: 0.015 | inactive: 0.092 | inactive: -0.063 |  | 
CIAO2B (UniProt Q9Y3D0) | inactive: 0.021 | inactive: -0.044 |  | inactive: -0.393 |  | inactive: 0.317 | inactive: -0.049 |  | inactive: -0.038 | 
CHP1 (UniProt Q99653) | inactive: 0.025 | inactive: 0.109 | inactive: -0.061 | inactive: -0.027 | inactive: 0.022 | inactive: -0.026 | inactive: -0.021 | inactive: 0.25 |  | 
CNN3 (UniProt Q15417) | inactive: 0.044 |  | inactive: 0.075 | inactive: -0.066 | inactive: -0.1 | inactive: 0.15 |  |  |  | 

2 consecutive records out of the list so far:
Target | log2 fold change [1] | log2 fold change (crizotinib) | log2 fold change [2] | log2 fold change [3] | log2 fold change (gandotinib) | log2 fold change [4] | log2 fold change (doramapimod) | log2 fold change (ispinesib) | log2 fold change (duvelisib) | log2 fold change (tozasertib)
CIP2A (UniProt Q8TCG1) | inactive: 0.325 |  | inactive: -0.132 |  | inactive: 0.41 | inactive: -0.377 |  |  | inactive: 0.498 | 
CMIP (UniProt Q8IY22) | inactive: 0.147 |  | inactive: -0.257 |  | inactive: 0.129 |  |  | inactive: 0.036 |  | 
